These are yes or no findings as the source states them, for the method shown. Binding seen in cells or lysates may run through a third protein. Some entries that bind do so weakly or less than the wild type.
Key:
[1] = target: T1, transfected full-length SREBP2 (UniProt Q12772); test: co-IP; transiently expressed FLAG-tagged mature SREBP1a, SREBP1c or SREBP2, or transfected full-length SREBP1 and SREBP2; endogenous or exogenous DAXX detected in the precipitate (Supplementary Fig. S6a, b)
T1 sequence: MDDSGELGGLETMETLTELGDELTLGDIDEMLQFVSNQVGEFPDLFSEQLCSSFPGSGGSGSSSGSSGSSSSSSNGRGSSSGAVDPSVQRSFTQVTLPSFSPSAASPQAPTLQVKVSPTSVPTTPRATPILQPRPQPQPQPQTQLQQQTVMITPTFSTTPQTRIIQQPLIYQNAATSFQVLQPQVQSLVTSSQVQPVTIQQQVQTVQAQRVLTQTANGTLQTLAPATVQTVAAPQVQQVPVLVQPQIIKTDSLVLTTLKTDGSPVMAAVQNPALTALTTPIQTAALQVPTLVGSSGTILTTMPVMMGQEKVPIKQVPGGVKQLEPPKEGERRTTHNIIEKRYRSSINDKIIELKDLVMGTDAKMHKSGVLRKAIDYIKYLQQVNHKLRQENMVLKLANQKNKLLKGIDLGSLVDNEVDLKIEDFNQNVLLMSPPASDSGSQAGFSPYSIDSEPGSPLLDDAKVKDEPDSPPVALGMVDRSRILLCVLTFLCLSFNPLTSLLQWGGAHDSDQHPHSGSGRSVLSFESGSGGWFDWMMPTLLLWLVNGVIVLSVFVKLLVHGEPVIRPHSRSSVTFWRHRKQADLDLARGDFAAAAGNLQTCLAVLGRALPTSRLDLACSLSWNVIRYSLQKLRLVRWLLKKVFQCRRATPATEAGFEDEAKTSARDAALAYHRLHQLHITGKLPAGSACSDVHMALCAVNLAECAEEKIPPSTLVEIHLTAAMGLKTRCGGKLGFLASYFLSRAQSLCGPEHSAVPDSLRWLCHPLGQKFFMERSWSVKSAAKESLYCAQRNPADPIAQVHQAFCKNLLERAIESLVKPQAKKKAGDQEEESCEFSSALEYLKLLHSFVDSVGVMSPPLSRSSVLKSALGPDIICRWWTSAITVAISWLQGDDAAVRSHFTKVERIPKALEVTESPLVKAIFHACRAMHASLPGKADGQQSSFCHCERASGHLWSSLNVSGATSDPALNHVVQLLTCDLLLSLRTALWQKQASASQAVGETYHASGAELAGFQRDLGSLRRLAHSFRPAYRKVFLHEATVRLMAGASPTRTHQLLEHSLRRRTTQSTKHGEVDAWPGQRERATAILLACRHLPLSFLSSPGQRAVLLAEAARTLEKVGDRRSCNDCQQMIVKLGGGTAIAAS

The chains behind the UniProt entries cited, without tags or fusion partners.
UniProt Q9UER7: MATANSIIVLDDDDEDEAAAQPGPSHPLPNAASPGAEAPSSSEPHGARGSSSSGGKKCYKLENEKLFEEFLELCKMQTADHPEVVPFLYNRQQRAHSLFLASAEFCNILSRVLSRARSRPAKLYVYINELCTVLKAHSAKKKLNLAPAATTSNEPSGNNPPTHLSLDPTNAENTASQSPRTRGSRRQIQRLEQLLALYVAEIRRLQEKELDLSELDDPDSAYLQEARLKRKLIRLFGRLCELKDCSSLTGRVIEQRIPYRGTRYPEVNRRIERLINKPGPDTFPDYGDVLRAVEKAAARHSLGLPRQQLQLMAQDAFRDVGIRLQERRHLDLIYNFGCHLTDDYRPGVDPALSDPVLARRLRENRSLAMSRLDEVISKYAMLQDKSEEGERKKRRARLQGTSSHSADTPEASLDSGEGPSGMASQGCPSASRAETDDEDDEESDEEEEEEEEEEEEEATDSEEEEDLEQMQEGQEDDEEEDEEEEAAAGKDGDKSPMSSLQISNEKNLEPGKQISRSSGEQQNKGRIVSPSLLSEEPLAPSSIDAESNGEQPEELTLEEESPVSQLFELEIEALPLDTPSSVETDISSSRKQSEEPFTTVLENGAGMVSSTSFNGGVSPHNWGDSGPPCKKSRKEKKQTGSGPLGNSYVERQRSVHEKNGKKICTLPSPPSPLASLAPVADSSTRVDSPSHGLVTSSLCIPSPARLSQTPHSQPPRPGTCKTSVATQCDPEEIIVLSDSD

[2] = target: T2, transfected full-length SREBP1 (UniProt P36956); test: as above
T2 sequence: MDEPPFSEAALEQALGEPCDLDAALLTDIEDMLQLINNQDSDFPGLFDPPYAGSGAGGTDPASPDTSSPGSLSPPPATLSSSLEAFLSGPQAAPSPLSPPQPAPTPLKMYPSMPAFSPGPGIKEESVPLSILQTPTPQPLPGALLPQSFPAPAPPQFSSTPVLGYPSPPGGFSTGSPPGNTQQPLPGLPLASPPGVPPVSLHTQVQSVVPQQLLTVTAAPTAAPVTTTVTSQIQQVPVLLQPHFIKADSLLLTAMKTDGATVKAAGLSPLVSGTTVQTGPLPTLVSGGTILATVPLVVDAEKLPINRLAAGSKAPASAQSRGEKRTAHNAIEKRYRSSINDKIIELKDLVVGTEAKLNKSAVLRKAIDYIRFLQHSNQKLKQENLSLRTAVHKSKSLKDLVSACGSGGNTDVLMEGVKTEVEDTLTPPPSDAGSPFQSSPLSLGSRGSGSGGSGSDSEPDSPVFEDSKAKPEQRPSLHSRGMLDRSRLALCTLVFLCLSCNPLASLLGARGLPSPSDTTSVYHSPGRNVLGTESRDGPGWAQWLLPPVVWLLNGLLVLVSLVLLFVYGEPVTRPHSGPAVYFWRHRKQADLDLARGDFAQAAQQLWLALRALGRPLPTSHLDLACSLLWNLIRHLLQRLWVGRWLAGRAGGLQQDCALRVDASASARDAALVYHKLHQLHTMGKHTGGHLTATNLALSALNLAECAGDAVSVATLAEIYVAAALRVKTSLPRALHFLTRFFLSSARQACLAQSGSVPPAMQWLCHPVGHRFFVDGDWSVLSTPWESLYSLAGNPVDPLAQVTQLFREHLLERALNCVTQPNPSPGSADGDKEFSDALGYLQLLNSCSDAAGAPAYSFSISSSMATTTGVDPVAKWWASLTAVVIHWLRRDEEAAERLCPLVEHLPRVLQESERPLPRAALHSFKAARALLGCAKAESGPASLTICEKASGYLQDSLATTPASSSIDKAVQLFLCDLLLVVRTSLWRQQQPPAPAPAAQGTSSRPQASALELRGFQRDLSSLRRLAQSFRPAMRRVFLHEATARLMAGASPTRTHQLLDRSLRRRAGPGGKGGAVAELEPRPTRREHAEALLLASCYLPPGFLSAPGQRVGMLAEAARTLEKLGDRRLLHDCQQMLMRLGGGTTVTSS

| Substance | binding [1] | binding [2] |
| --- | --- | --- |
| DAXX (endogenous) (from UniProt Q9UER7 1-740) | binds | binds |
| exogenous DAXX (Supplementary Fig. S6) (from UniProt Q9UER7 1-740) | binds | binds |

Source: publication PMC10097704
